Measured values taken from patent US10611720B2, “Composition for preventing or treating hair loss including benzene diamine derivative” (UNIST(ULSAN NATIONAL INSTITUTE OF SCIENCE AND TECHNOLOGY), priority 2017, dated 2020).
Some of these results come from one statement about several compounds together. At least one compound was matched to its structure with a doubt left.

Tested on: COL17A1
Assay: COL17A1 expression in hDPC cells under oligomer Aβ (confocal fluorescence)
Type: cell-based, human
Conditions: Example 4; hDPCs, 2 nM oligomer Aβ + 25 μg/ml compound, 3 days; compared with cells treated with oligomer Aβ
Protocol: As in Example 2, examination was performed by using oligomer Aβ as a cytotoxic material for hDPC.
(§1) At 3 days after treatment of the derivatives, the cells were fixed with 4% paraformaldehyde solution, and washed with PBS, and then fluorescence of ROI (relative fluorescence intensity) was measured at 488 nm by a confocal microscope (CONFOCAL, LSM710, Carl Zeiss, Germany) to examine SOX-9 and Cola17a1 expressions. As in Example 2, examination was performed by using oligomer Aβ as a cytotoxic material for hDPC.
as §1, with “fluorescence” for “fluorescence of ROI (relative fluorescence intensity)”, “488 nm/565” for “488”, “hDPC. […] COL17A1 expression was inhibited in the cells (control group C) treated with the cytotoxic oligomer Aβ, as compared with the normal group.” for “hDPC.”

Compound | COL17A1 expression (confocal imaging, in words)
CC(=O)Nc1ccc(N)cc1 [Compound 5, N-(4-aminophenyl)acetamide] | remarkably increased the expression
CC(=O)Nc1ccc(N(C)C)cc1 [Compound 4, N-(4-dimethylamino)phenyleneacetamide] | remarkably increased the expression
c1ccc(CNc2ccc(N3CCOCC3)cc2)nc1 [Compound 2, 4-morpholino-N-(pyridin-2-ylmethyl)aniline] | remarkably increased the expression
CC(=O)Nc1ccc(NC(C)=O)cc1 [Compound 6, N,N-(1,4-phenylene)diacetate Amide] | remarkably increased the expression
